In US4695570A, “Antiviral compound use” (Burroughs Wellcome Co., priority 1985, dated 1987):

System: antisera used in the assay
Test: Cross reaction in the acyclovir radioimmunoassay

Row | SMILES | cross reaction with the antisera used in the radioimmunoassay
1 | Nc1ncc2ncn(COCCO)c2n1 [6-deoxyacyclovir, 2-Amino-9-(2-hydroxyethoxymethyl)purine] | neither aminoacyclovir nor 6-deoxyacyclovir cross reacted
2 | Nc1nc(N)c2ncn(COCCO)c2n1 [aminoacyclovir, 2,6-diamino-9-(2-hydroxyethoxymethyl)purine, reference compound] | neither aminoacyclovir nor 6-deoxyacyclovir cross reacted
